## Melanoma cell counts after drug treatment

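The test systems are human melanoma cell lines, treated with two drugs together for 72 h and then stained and imaged. Values are the number of DAPI-stained nuclei as a percentage of the DMSO control: 100 is no effect, lower means fewer cells. Concentrations were fixed for each drug; these are the lower of two levels, a fifth of the higher. These are primary screening values without error estimates.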 This is part of the screen, not chosen by result.

Drugs:
ZM336372 (2 µM): Cc1ccc(NC(=O)c2cccc(N(C)C)c2)cc1NC(=O)c1ccc(O)cc1
OSI-906 (0.4 µM): C[C@]1(O)C[C@@H](c2nc(-c3ccc4ccc(-c5ccccc5)nc4c3)c3c(N)nccn32)C1
GW9662 (2 µM): O=C(Nc1ccccc1)c1cc([N+](=O)[O-])ccc1Cl
CP-690550 (1 µM): C[C@@H]1CCN(C(=O)CC#N)C[C@@H]1N(C)c1ncnc2[nH]ccc12
L-779450 (0.2 µM): Oc1cc(-c2nc(-c3ccccc3)[nH]c2-c2ccncc2)ccc1Cl
NVP-BEZ235 (0.004 µM): Cn1c(=O)n(-c2ccc(C(C)(C)C#N)cc2)c2c3cc(-c4cnc5ccccc5c4)ccc3ncc21
palbociclib (0.04 µM): CC(=O)c1c(C)c2cnc(Nc3ccc(N4CCNCC4)cn3)nc2n(C2CCCC2)c1=O
GW441756 (0.4 µM): Cn1cc(/C=C2\C(=O)Nc3cccnc32)c2ccccc21
BMS-536924 (0.2 µM): Cc1cc(N2CCOCC2)cc2[nH]c(-c3c(NC[C@@H](O)c4cccc(Cl)c4)cc[nH]c3=O)nc12

Combination | COLO 800
BMS-536924 and OSI-906 | 54.7
ZM336372 and palbociclib | 103
OSI-906 and CP-690550 | 49.3
L-779450 and CP-690550 | 93.7
NVP-BEZ235 and CP-690550 | 92.9
GW9662 and L-779450 | 89.0
NVP-BEZ235 and GW9662 | 102
GW9662 and ZM336372 | 80.0
L-779450 and OSI-906 | 66.2
ZM336372 and GW441756 | 98.6
CP-690550 and ZM336372 | 99.1
GW441756 and GW9662 | 95.9
NVP-BEZ235 and ZM336372 | 152
BMS-536924 and GW441756 | 78.9
L-779450 and NVP-BEZ235 | 145
L-779450 and ZM336372 | 151
palbociclib and NVP-BEZ235 | 105
OSI-906 and GW9662 | 65.3
palbociclib and OSI-906 | 79.8
CP-690550 and palbociclib | 117
BMS-536924 and L-779450 | 61.7
CP-690550 and GW441756 | 93.7
ZM336372 and OSI-906 | 70.5
palbociclib and BMS-536924 | 36.3
NVP-BEZ235 and GW441756 | 90.6
BMS-536924 and NVP-BEZ235 | 40.0

Repeated from the top, 2 entries:

{"combination": "BMS-536924 and OSI-906", "COLO 800": 54.7}
{"combination": "ZM336372 and palbociclib", "COLO 800": 103}

Source: doi:10.1371/journal.pone.0140310, primary screening data, rounded.